## Library screening results

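Whole-cell assay for inhibitors of Mycobacterium tuberculosis growth, labelled Cornell in the record; the read-out is not stated. The concentration is filed as 10 mM, unlikely as a test dose, so the dose is not known. Higher means stronger inhibition (inferred from two other growth screens of the library). Of about 53,000 compounds tested this way, about 900 (1.7%) reached 50% or more in at least one test.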

Results are given as percent effect. How 0% and 100% were set is not recorded. Most values in the screen are low, and negative values occur. Compounds were drawn at random from those tested, without regard to their results.

SMILES: O=C(O)c1cc(C2=CCCCC2)cc(S(=O)(=O)NCc2ccccn2)c1
percent effect: 15.91%

SMILES: Cc1noc(C)c1CN1CC2(CCN(C(=O)c3c[nH]cn3)C2)CC1=O (stereo not drawn)
percent effect: 12.7%

SMILES: CN1C(=O)CO[C@H](c2ccc(NC(=O)NC(C)(C)C)cc2)[C@H]1CO
percent effect: -6.243%

SMILES: O=C(CCNc1ccccc1)NC1CCN(C(=O)C2CCCCC2)CC1
percent effect: 28.92%

SMILES: [H][C@]12CCN(c3ncc(CC)cn3)C[C@@]1([H])OCCN(C(=O)c1ccco1)C2
percent effect: -6.597%

SMILES: Cc1nccn1CC1CCCN(S(=O)(=O)c2cnn(C)c2)C1 (stereo not drawn)
percent effect: -0.968%

SMILES: O=C(c1ccncn1)N1CCC[C@]2(C[C@H](OCC3CC3)CO2)C1
percent effect: 3.169%

SMILES: CN1CCN(c2ncccc2N)CC1
percent effect: -43.88%

SMILES: Cc1nc(-c2nc(C(=O)N(C)C)c3ccccn23)cn1C(C)C
percent effect: -1.236%

SMILES: Cc1csc(CNc2cccc(OCCN3CCCC3)c2)n1
percent effect: 34.79%

SMILES: COC(=O)c1cccn1C1CCN(C(=O)c2cc(F)ccc2F)CC1
percent effect: 26.55%

SMILES: O=C(O)C(F)(F)F.[H][C@@]12CN(CCO)C[C@@]1([H])N(Cc1cccc(C)c1)C(=O)CO2
percent effect: 19.82%

SMILES: COC(=O)CCCn1ccnc1-c1ccccc1
percent effect: -5.94%

SMILES: CN1CCN(CC2CC2)C(=O)C12CCN(C(=O)c1cnccn1)CC2
percent effect: 16.02%

SMILES: CC(=O)NCC1CCCN(C(=O)Cc2c(C)noc2C)C1 (stereo not drawn)
percent effect: -19.72%

SMILES: Cn1nnnc1SCc1cc2c(cc1Cl)OCO2
percent effect: 16.16%

SMILES: CNC(=O)c1nc(CN2CCOC(C(F)(F)F)C2)no1 (stereo not drawn)
percent effect: -91.02%

SMILES: CCOC(=O)c1c(NC(=O)CN2CCN(C(C)=O)CC2)sc2c1CCC2
percent effect: 13.07%

SMILES: COc1cc2[nH]c(=O)c(CN3CCCC(CO)C3)cc2c(OC)c1OC (stereo not drawn)
percent effect: 18.46%

SMILES: Nc1nc(N)c2c(n1)OC1(CCN(C(=O)CC3CCCNC3)CC1)C2 (stereo not drawn)
percent effect: 19.44%

SMILES: CC(C)COC(=O)N1CCCN(C(C)c2nnc(CC(C)C)o2)CC1 (stereo not drawn)
percent effect: 10.88%

SMILES: COc1cccc2cc(CNCc3ccnc(N4CCOCC4)c3)oc12
percent effect: -7.276%

SMILES: O=C(O)C(F)(F)F.[H][C@@]12CCN(Cc3ccoc3)C[C@]1([H])O[C@@H](C(=O)N(C)C)C2
percent effect: -9.986%

SMILES: COc1ccc2[nH]cc(-c3ccnc(N4CCC(C)CC4)n3)c2c1
percent effect: 24.84%

SMILES: O=C(c1cc(Cn2ccc3ccccc32)[nH]n1)N1CCCCC1CO (stereo not drawn)
percent effect: 3.728%

SMILES: CC(=O)N1CCCN(Cc2cc(F)cc(Br)c2)CC1
percent effect: 5.407%

SMILES: O=C(O)C(F)(F)F.[H][C@@]12OCCN(CC3CC3)[C@@]1([H])CC[C@H]2OC
percent effect: -10.31%

SMILES: Cc1nn(CC(C)C)c(N(C)C)c1CNCCS(C)(=O)=O
percent effect: 83.1%

SMILES: Cc1cc(C)n(CCN2CCC(N(C)Cc3nnc(C)n3C)C2)n1 (stereo not drawn)
percent effect: -7.03%

SMILES: O=C(O)C(F)(F)F.[H][C@@]12COC[C@@H](NS(C)(=O)=O)[C@]1([H])CN(Cc1ccc(C)o1)C2
percent effect: 27.78%

SMILES: CN(CC(=O)N1CCC(Cc2cccc(C(N)=O)c2)C1)C1CCCC1 (stereo not drawn)
percent effect: 1.248%

SMILES: CCCn1cc(C(=O)N2CCCC2(C)c2nc(C)cc(N)n2)cn1 (stereo not drawn)
percent effect: -4.951%

SMILES: O=C(c1ccc(F)c(F)c1)N1CCCSCC1CN1CCCC1 (stereo not drawn)
percent effect: 19.89%

SMILES: Cc1ccn(CC(=O)NCCCOc2ccccc2F)c(=O)c1
percent effect: -41.15%

SMILES: [H][C@@]12CCN(C(=O)Cc3cccs3)[C@@]1([H])CC(=O)N2CC1CC1
percent effect: -0.9872%

SMILES: CC(=O)N1CC(=O)N(c2cnn(C)c2)CC12CCN(Cc1nccs1)C2 (stereo not drawn)
percent effect: 4.246%

SMILES: N#Cc1cccc(C(=O)N2CCN(c3ncccn3)CC2)c1
percent effect: -43.67%

Repeated from the top, 2 entries:

{"smiles": "O=C(O)c1cc(C2=CCCCC2)cc(S(=O)(=O)NCc2ccccn2)c1", "percent effect": 15.91}
{"smiles": "Cc1noc(C)c1CN1CC2(CCN(C(=O)c3c[nH]cn3)C2)CC1=O", "stereo": "stereo not drawn", "percent effect": 12.7}

Measurements from “University of Dundee, Small-Polar-MMV Screening Library” (2021), ChEMBL document CHEMBL3988442.